From patent US11633454B2, “Compositions and methods for treating metabolic diseases” (SHANGHAI HEP PHARMACEUTICAL CO., LTD., priority 2016, dated 2023)
At least one structure is not confirmed: it was looked up by name or label, or the drawing left a doubt.

Tested on: hyperlipidemic golden hamsters
Assay: Hyperlipidemic golden hamster model, 4 weeks of treatment
Type: in vivo
Conditions: FENO positive control in the experiment with additional polypeptides; FIGS. 7A, 7B

`CC(C)OC(=O)C(C)(C)Oc1ccc(C(=O)c2ccc(Cl)cc2)cc1` [FENO, Fenofibrate] was tested, and the “Serum TC level” value was “capable of decreasing the serum TC levels”.
